The record followed here is patent US20040235104A1.

The target in test [1] is T1, MYC tagged SEF-FL (full length human SEF in PCDNA4 VERSION A expression plasmid) (human) (UniProt Q8NFM7).
T1 sequence: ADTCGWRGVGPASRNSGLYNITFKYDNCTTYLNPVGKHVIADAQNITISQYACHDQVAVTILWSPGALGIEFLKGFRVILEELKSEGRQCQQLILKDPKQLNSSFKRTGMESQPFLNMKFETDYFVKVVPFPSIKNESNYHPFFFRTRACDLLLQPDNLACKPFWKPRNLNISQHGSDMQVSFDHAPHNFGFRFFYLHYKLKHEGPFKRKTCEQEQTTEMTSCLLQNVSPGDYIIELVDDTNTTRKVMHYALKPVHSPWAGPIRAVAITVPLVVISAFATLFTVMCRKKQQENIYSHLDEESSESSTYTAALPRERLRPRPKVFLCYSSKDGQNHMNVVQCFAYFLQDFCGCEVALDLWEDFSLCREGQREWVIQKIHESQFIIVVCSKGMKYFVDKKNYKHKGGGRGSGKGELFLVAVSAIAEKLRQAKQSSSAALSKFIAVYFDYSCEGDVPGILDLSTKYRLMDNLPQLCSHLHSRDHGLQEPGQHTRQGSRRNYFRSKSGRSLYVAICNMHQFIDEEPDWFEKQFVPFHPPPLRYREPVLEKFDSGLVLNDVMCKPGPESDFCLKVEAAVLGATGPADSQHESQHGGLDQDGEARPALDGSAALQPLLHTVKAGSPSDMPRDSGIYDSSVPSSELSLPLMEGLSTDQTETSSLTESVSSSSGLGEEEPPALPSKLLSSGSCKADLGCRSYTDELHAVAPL
As to the kind of experiment: co-immunoprecipitation and western blot of Flag_SEF and SEF_Myc co-transfected cells. A general note: In western blotting, separated proteins are transferred to a membrane and probed.

In test [2] the target is T1, MYC tagged SEF-FL (full length human SEF in PCDNA4 VERSION A expression plasmid) (human). As to the kind of experiment: co-immunoprecipitation from lysates of 293T cells co-transfected with FLAG and MYC tagged SEF-FL: IP anti-MYC with blot anti-FLAG M2, and the reciprocal IP anti-FLAG M2.

Results are given in words; binding and its absence hold for the method and conditions named. In cells and extracts the contact can be indirect. Some binding calls cover weakened binding; strength is not graded here. Sequences can lack the tags named with a protein.

B1: FLAG tagged SEF-FL (full length human SEF in PFLAG-CMV-1 expression vector) (receptor, not shown: small tags and cut ends)
chain: T1 sequence
For the molecule B1, the binding result in test [1] and in test [2] was “binds” throughout.
